Measurements: PubChem BioAssay AID743255 (National Center for Advancing Translational Sciences (NCATS), 2014)
The whole screen tested about 390,000 compounds, of which about 910 (0.23%) were called active. The shares of active, inactive and inconclusive entries below differ from those in the screen. The call rests on the fitted dose curve; in most records, active means well fitted inhibition curve with a large enough effect; inconclusive means small, poorly fitted or top-dose-only effect; inactive means no such curve, though single readings can be large or run the other way. Potencies of inconclusive entries are doubtful fits and often do not repeat.

Chains of the proteins cited; added tags and fusions are not shown. Lines headed by an entry give the natural chain unless they say otherwise; changes in a name come on top.
UniProt O94782: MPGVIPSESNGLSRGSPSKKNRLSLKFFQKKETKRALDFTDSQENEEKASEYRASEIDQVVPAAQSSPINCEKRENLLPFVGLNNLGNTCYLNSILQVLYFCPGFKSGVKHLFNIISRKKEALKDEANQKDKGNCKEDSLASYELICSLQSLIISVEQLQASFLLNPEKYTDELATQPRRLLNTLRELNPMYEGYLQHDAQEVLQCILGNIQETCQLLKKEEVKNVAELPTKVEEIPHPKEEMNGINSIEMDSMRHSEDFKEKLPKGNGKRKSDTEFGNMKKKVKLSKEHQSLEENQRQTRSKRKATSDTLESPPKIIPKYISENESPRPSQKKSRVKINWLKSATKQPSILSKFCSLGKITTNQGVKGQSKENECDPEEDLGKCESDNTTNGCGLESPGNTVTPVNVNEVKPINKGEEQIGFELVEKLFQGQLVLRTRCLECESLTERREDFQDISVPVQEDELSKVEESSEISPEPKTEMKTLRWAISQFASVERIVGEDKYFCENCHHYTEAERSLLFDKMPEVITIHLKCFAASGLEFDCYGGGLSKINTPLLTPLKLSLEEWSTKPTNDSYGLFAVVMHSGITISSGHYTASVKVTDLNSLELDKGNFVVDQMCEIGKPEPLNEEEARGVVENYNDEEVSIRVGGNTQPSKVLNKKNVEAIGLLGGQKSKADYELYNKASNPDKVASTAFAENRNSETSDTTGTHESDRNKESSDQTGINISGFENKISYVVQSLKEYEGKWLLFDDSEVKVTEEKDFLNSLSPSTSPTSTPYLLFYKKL

biological target: Ubiquitin carboxyl-terminal hydrolase 1 (Homo sapiens) (UniProt O94782); assay: Inhibitors of USP1/UAF1: Primary Screen; conditions: recombinant USP1/UAF1, Ub-Rhodamine cleavage fluorescence; series mostly up to 57.1 µM; further: nearly all actives have a fitted effect of over 60% in size
Summary of the method: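 High-throughput fluorogenic screen: 1nM USP1/UAF1 complex, Ub-Rho substrate 150nM final, 50mM HEPES pH 7.8 with 0.5mM EDTA, 0.1 mg/ml BSA, 1mM TCEP and 0.01% Tween-20.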
Potency means the concentration at half of the fitted maximal effect.

Compound	Potency
CCc1nc(N2CCC3(CC2)OCCO3)c2nnn(Cc3ccccc3)c2n1	inactive
COc1cc(OC)c(C=NNC(=S)NC23CC4CC(CC(C4)C2)C3)c(OC)c1	inactive
COC(=O)[C@]1(Cc2ccccc2)N[C@H](c2ccc(-c3ccc(Cl)c(Cl)c3)cc2)[C@@H]2C(=O)N(C)C(=O)[C@@H]21	inconclusive: 0.282 µM [inhibitor, full curve]
CC(C)CNC(=O)C1=CC(c2ccc3c(c2)OCO3)=NS(=O)(=O)N1C	inconclusive: 1.41 µM [inhibitor, full curve, poor fit]
CC(C)n1c(O)c(N=Nc2ccc(Cl)c(C(=O)O)c2)c2ccccc21	inconclusive: 11.2 µM [inhibitor, full curve]
Nc1ccc(S(=O)(=O)N2CCCc3ccccc32)cc1	inconclusive: 0.794 µM [inhibitor, full curve, poor fit]
CC(=O)Nc1ccc(NC(=S)Nc2ccc(F)cc2)cc1	inconclusive: 3.98 µM [inhibitor, partial curve]
Cc1ccc(OCC(=O)Nc2ccc(C(=O)OCc3cc(=O)n4c(C)csc4n3)cc2)cc1	inconclusive: 0.224 µM [inhibitor, full curve, poor fit]
O=C(O)c1ccc(/C=N/Nc2ncc(C(F)(F)F)cc2Cl)cc1	inconclusive: 50.1 µM [inhibitor, partial curve, poor fit]
CCOC(=O)N1CCC(NC(=O)C2CCN(S(=O)(=O)c3cccc4cccnc34)CC2)CC1	inconclusive: 0.708 µM [inhibitor, full curve]
CC(=O)Nc1cccc(NC(C)=C(C#N)C#N)c1	inconclusive: 31.6 µM [inhibitor, partial curve, poor fit]
O=C(CSc1nc(=O)[nH]c2c1CCC2)NCc1ccccc1	inconclusive: 79.4 µM [inhibitor, partial curve, poor fit]
O=C(CCNC(=O)c1ccc([N+](=O)[O-])cc1)Nc1cc(C(F)(F)F)ccc1N1CCOCC1	inconclusive: 31.6 µM [inhibitor, partial curve]
COC(=O)C1=COC(C)C2CN3CCc4c([nH]c5cc(OC)c(OC)cc45)C3CC12 (configuration not stated)	inconclusive: 15.8 µM [inhibitor, partial curve]
O=C(CSc1c2c(nc3cc(Cl)ccc13)CCCC2)NCc1ccco1	inactive
O=C(CCNS(=O)(=O)c1ccc(Cl)cc1)NCc1ccccn1	inconclusive: 35.5 µM [inhibitor, single point]
CCCCCCN1C[C@H](n2cc(COC(=O)c3ccccc3)nn2)[C@@H](O)C[C@@H]1c1ccc(Cl)cc1	inconclusive: 0.282 µM [inhibitor, full curve, poor fit]
Cc1ccc(Cl)cc1N1CCN(C(=O)c2ccc(C)c(-n3c(C)nc4cccnc43)c2)CC1	inconclusive: 1.12 µM [inhibitor, full curve]
CC(C)N(C(=O)[C@H]1C[C@H](CC(=O)NCc2cccc(C(F)(F)F)c2)C(=O)N2CCc3c([nH]c4ccc(Cl)cc34)[C@]12C)C(C)C	inconclusive: 44.7 µM [inhibitor, partial curve, poor fit]

Compound	Potency
C[C@@H]1CN([C@@H](C)CO)C(=O)c2cc(NC(=O)Nc3cccc4ccccc34)ccc2O[C@@H](C)CCCCO[C@H]1CN(C)C(=O)c1ccccc1	inconclusive: 0.282 µM [inhibitor, full curve, poor fit]
Cc1cc(-c2ccccc2)nc2c(Br)c(C(=O)O)nn12	inconclusive: 25.1 µM [inhibitor, partial curve]
Cc1ccc(NC(=O)C(Cc2ccccc2)NS(=O)(=O)c2cccc3nsnc23)c(C)c1 (configuration not stated)	inactive
Cc1cc(C)n(C(=O)c2cc3sccc3[nH]2)n1	inconclusive: 15.8 µM [inhibitor, partial curve]
COc1cccc(-c2cc3nc(C)cc(N4CCN(C(=O)c5ccoc5)CC4)n3n2)c1	inconclusive: 44.7 µM [inhibitor, partial curve, poor fit]
O=C(CC1N=C2c3ccccc3N=C(SCc3ccccc3F)N2C1=O)NCc1cccs1 (configuration not stated)	inconclusive: 0.282 µM [inhibitor, full curve, poor fit]
COc1ccc(C(=O)C(C)OC(=O)CCN2C(=O)C3CC=CCC3C2=O)cc1 (configuration not stated)	inactive
Cc1ccc(N2CCN(C(=O)c3cn(C)c4ccc(S(=O)(=O)N(C)C5CCCCC5)cc4c3=O)CC2C)cc1 (configuration not stated)	inconclusive: 56.2 µM [inhibitor, partial curve, poor fit]
CCN(CC)c1ccc(NC(=O)CSc2nc(C)cc(=O)[nH]2)cc1	inconclusive: 35.5 µM [inhibitor, single point]
CC(C)C(=O)Nc1ccc2nc(SCCOc3ccccc3)sc2c1	inconclusive: 5.62 µM [inhibitor, partial curve]
CCO[C@@H]1OC(C(=O)N2CCN(Cc3ccccc3)CC2)=C[C@H](c2ccc(C(F)(F)F)cc2)[C@H]1CCCO	inconclusive: 44.7 µM [inhibitor, partial curve, poor fit]
Cc1ccc(S(=O)(=O)N2[C@@H](c3ccc(Cl)cc3)C(C(=O)O)=CC[C@H]2c2cccs2)cc1	inconclusive: 50.1 µM [inhibitor, partial curve, poor fit]
C=C(C)COc1ccc(-c2n[nH]c(C)c2-c2ccc(OC)c(OC)c2)c(O)c1	inactive
COc1ccc(S(=O)(=O)N2CCN(C(=O)c3cc4c(s3)CCC4)CC2)cc1	inconclusive: 50.1 µM [inhibitor, partial curve, poor fit]
Cc1ccc(NC(=O)CCOc2ccccc2C)cc1F	inconclusive: 39.8 µM [inhibitor, partial curve, poor fit]
CCOc1ccc(/C=C/c2[nH]c(=O)[nH]c(=O)c2[N+](=O)[O-])cc1	inactive
COc1ccccc1NC(=O)C1=C(C)Nc2nc(SCc3cc(C)ccc3C)nn2C1c1ccccc1 (configuration not stated)	inactive
O=C1c2cc(O)c(O)cc2S(=O)(=O)C1c1ccccc1 (configuration not stated)	inconclusive: 44.7 µM [inhibitor, partial curve, poor fit]
